Source: patent publication US20220221443A1, “BIOMARKER DETECTION FOR CANCER DIAGNOSIS AND PROGNOSIS” (IP2IPO Innovations Limited, priority 2019, published 2022)

Key:
[1] = 2 g tyrosine: exhaled breath VOCs by SIFT-MS in oesophageal cancer, gastric cancer and controls; conditions: for Baseline Concentration, Control / Baseline Concentration, Gastric Cancer / Baseline Concentration, Oesophageal Cancer: Median; for Baseline Concentration, Control: controls n=6, before 2 g tyrosine; for Baseline Concentration, Gastric Cancer / Baseline Concentration, Oesophageal Cancer: n=6, before 2 g tyrosine; for Increase/decrease: after 2 g tyrosine consumption
[2] = Combined amino acid drink (tyrosine, phenylalanine, glutamic acid): exhaled breath VOCs by SIFT-MS in cancer and controls; format: in vivo, human; conditions: for Oesophagogastric Cancer: Post-amino acids Concentration: median, exhaled breath, oesophagogastric cancer group; for baseline concentration, cancer group: before combined amino acid drink
[3] = Comparison of 4 sugars at 25 g: butanoic acid in exhaled breath by SIFT-MS; format: in vivo, human; conditions: 25 g sugar per 100 ml
[4] = Glucose versus combined glucose and citric acid: exhaled breath VOCs by SIFT-MS in healthy controls; format: in vivo, human; conditions: median; for Control 1 (glucose only): Baseline Concentration / Control 2 (glucose + citric acid): Baseline Concentration / Control 2 (glucose + citric acid): Post-drink Concentration / Control 1 (glucose only): Post-drink Concentration: exhaled breath; for Control 1 (glucose only): Baseline Concentration: control group 1 (n=6); for Control 1 (glucose only): Baseline Concentration / Control 2 (glucose + citric acid): Baseline Concentration: before drink; for Control 2 (glucose + citric acid): Baseline Concentration: control group 2 (n=6)
[5] = Glucose dose study: exhaled breath VOCs by SIFT-MS in healthy subjects; format: in vivo, human; conditions: for Fold change, 10 g: 5-15 minutes after 10 g glucose; for Fold change, 25 g: 5-15 minutes after 25 g glucose; for Fold change, 50 g: 5-15 minutes after 50 g glucose; for Fold change, 75 g: 5-15 minutes after 75 g glucose; for Fold change, Baseline: 5-15 minutes, baseline 0 g glucose
[6] = 30 minutes after combined amino acid drink
[7] = time point 30 mins after combined amino acid drink
[8] = 40 minutes after combined amino acid drink
[9] = after combined amino acid drink
[10] = after combined amino acid drink, time not stated

SMILES | Baseline Concentration, Control [1] [ppbv] | Baseline Concentration, Gastric Cancer [1] [ppbv] | Baseline Concentration, Oesophageal Cancer [1] [ppbv] | Increase/decrease [1] | Oesophagogastric Cancer: Post-amino acids Concentration [2, 7] [ppbv] | Control 1 (glucose only): Baseline Concentration [4] [ppbv] | Control 2 (glucose + citric acid): Baseline Concentration [4] [ppbv] | Control 2 (glucose + citric acid): Post-drink Concentration ([4]; time point 5 mins) [ppbv] | Control 1 (glucose only): Post-drink Concentration ([4]; time point 5 mins) [ppbv] | Control 2 (glucose + citric acid): Fold change ([4]; 5 mins vs baseline) | Control 1 (glucose only): Fold change ([4]; 5 mins vs baseline) | other results
CCCCCCCCCC [Decane] | 5.59 | 3.3 | 3.27 | ↑ | 4.78 | – | – | – | – | – | – | fold increase, cancer group [2, 6]: 1.44
OC[C@H]1O[C@@H](O[C@H]2[C@H](O)[C@@H](O)C(O)O[C@@H]2CO)[C@H](O)[C@@H](O)[C@H]1O (some centres unmarked) [lactose] | – | – | – | – | – | – | – | – | – | – | – | time of maximal increase of butanoic acid in exhaled breath after sugar consumption [3]: 10 min
CCC(=O)O [Propanoic acid] | 22.58 | 31.75 | 17.79 | – | 11.46 | 15.89 | 8.19 | – | – | – | – | Control 2 (glucose + citric acid): Post-drink Concentration ([4]; time point 5-10 mins): 15.33 ppbv; Control 1 (glucose only): Post-drink Concentration ([4]; time point 5-10 mins): 17.14 ppbv; Control 2 (glucose + citric acid): Fold change ([4]; 5-10 mins vs baseline): 1.96; Control 1 (glucose only): Fold change ([4]; 5-10 mins vs baseline): 1.17; Fold change, 10 g ([5]; Average of all subjects): 7.1; Fold change, 25 g ([5]; Average of all subjects): 4.6; Fold change, 50 g ([5]; Average of all subjects): 7.9; Fold change, 75 g ([5]; Average of all subjects): 7.8; Fold change, Baseline ([5]; Average of all subjects): 1.1; Fold change, 10 g ([5]; Median of all subjects): 5.3; Fold change, 25 g ([5]; Median of all subjects): 4.3; Fold change, 50 g ([5]; Median of all subjects): 6.3; Fold change, 75 g ([5]; Median of all subjects): 9.9; Fold change, Baseline ([5]; Median of all subjects): 0.7
CCCCCCCCC=O [Nonanal] | 3.99 | 2.38 | 2.34 | – | 2.55 | 1.07 | 2.30 | 2.49 | 1.56 | 1.08 | 1.23 | –
CCCC=O [Butanal] | 5.45 | 5.16 | 4.57 | ↑ | 2.42 | 2.46 | 2.82 | 2.37 | 2.21 | 0.87 | 1.03 | –
CCCCCCCC=O [Octanal] | 1.38 | 1.08 | 0.91 | – | 0.59 | 0.43 | 1.43 | 1.12 | 0.58 | 0.81 | 1.40 | –
CCC=O [Propanal] | 17.98 | 11.70 | 8.52 | – | 8.78 | 9.67 | 6.96 | – | – | – | – | Control 2 (glucose + citric acid): Post-drink Concentration ([4]; time point 10-15 mins): 9.41 ppbv; Control 1 (glucose only): Post-drink Concentration ([4]; time point 10-15 mins): 9.29 ppbv; Control 2 (glucose + citric acid): Fold change ([4]; 10-15 mins vs baseline): 1.29; Control 1 (glucose only): Fold change ([4]; 10-15 mins vs baseline): 1.06
CCCCC(=O)O [Pentanoic acid] | 4.86 | 3.76 | 3.78 | – | 1.53 | 2.45 | 3.11 | 2.65 | 2.38 | 0.99 | 0.73 | Fold change, 10 g ([5]; Average of all subjects): 1.2; Fold change, 25 g ([5]; Average of all subjects): 1.1; Fold change, 50 g ([5]; Average of all subjects): 1.4; Fold change, 75 g ([5]; Average of all subjects): 1.4; Fold change, Baseline ([5]; Average of all subjects): 0.9; Fold change, 10 g ([5]; Median of all subjects): 1.1; Fold change, 25 g ([5]; Median of all subjects): 1.0; Fold change, 50 g ([5]; Median of all subjects): 1.4; Fold change, 75 g ([5]; Median of all subjects): 1.3; Fold change, Baseline ([5]; Median of all subjects): 0.9
Cc1ccc(O)cc1 [P-cresol] | 1.24 | 1.72 | 0.92 | ↑ | – | – | – | – | – | – | – | change in the control group [2, 8]: No change; concentration at 40 minutes, cancer group [2, 8]: 1.25 ppbv; fold increase, cancer group [2, 8]: 1.37 fold; time of optimal response / significant increase in the cancer group [2, 9]: 40 min; baseline concentration, cancer group [2]: 0.93 ppbv; Oesophagogastric Cancer: Post-amino acids Concentration ([2]; time point 40 mins after combined amino acid drink): 1.25 ppbv
CCCCCCC=O [Heptanal] | 1.46 | 0.95 | 0.70 | ↑ | 0.94 | 0.60 | 1.80 | 1.22 | 0.53 | 0.77 | 0.86 | –
CCCCC=O [Pentanal] | 2.26 | 2.63 | 1.66 | – | 1.14 | 1.17 | 1.32 | 1.43 | 1.05 | 0.89 | 1.00 | –
Oc1ccccc1 [Phenol] | 9.01 | 5.41 | 4.65 | ↑ | 2.27 | – | – | – | – | – | – | fold increase, cancer group [2, 10]: 1.79 fold; fold increase, non-cancer group [2, 10]: 1.83 fold
CCCCCCCCCC=O [Decanal] | 2.04 | 1.14 | 1.08 | ↑ | 0.83 | 0.66 | 0.87 | 0.77 | 0.59 | 1.13 | 0.97 | concentration at 30 minutes, cancer group [2, 6]: 0.83 ppbv; fold increase, cancer group [2, 6]: 1.41; fold increase, control group [2, 6]: 1.05; time of optimal response / significant increase in the cancer group [2, 9]: 30 min; baseline concentration, cancer group [2]: 0.69 ppbv
CCCCCC=O [Hexanal] | 9.23 | 4.73 | 4.55 | ↑ | 3.42 | 2.71 | 4.04 | 4.86 | 3.09 | 1.07 | 1.06 | –
CCc1ccc(O)cc1 [1-hydroxy-4-ethylbenzene] | 0.59 | 0.32 | 0.59 | – | 0.45 | – | – | – | – | – | – | –
CC=O [Acetaldehyde] | 40.93 | 29.43 | 22.73 | – | 19.80 | 16.02 | 19.72 | 21.09 | 15.25 | 0.94 | 1.04 | –
